According to PubChem BioAssay AID743255 (National Center for Advancing Translational Sciences (NCATS), 2014):
Out of some 390,000 compounds screened, about 910 (0.23%) were called active. Inconclusive results, whose numbers are uncertain, are shown with a selection of clear calls. Calls follow the shape of the dose curve; as a rule, active = well fitted inhibition curve with a large enough effect; inconclusive = small, poorly fitted or top-dose-only effect; inactive = no such curve, though single readings can be large or run the other way. Where the call is inconclusive, the potency comes from a doubtful curve fit.

Chains of the proteins cited; added tags and fusions are not shown. Lines headed by an entry give the natural chain unless they say otherwise; changes in a name come on top.
UniProt O94782: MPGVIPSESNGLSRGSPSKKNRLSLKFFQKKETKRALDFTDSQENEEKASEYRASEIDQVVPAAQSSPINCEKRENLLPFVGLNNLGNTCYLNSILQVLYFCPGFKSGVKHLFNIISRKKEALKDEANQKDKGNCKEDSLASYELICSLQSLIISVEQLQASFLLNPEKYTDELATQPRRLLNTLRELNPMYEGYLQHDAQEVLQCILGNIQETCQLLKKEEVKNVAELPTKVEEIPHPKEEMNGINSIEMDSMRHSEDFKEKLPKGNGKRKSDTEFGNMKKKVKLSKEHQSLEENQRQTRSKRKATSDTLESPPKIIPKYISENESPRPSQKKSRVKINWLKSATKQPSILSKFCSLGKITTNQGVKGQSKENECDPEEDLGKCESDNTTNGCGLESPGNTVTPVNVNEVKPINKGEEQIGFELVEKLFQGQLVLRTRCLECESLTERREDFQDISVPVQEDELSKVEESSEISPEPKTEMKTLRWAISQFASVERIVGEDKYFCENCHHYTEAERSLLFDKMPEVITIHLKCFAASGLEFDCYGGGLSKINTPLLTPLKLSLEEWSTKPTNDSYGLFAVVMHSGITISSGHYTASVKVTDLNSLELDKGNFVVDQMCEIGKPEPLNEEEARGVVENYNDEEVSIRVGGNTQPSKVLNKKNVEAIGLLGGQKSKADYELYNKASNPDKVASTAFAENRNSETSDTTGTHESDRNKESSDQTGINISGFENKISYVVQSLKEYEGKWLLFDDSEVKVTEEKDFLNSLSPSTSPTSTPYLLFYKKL

Biological target: Ubiquitin carboxyl-terminal hydrolase 1 (Homo sapiens) (UniProt O94782)
Experiment: Inhibitors of USP1/UAF1: Primary Screen; also: nearly all actives have a fitted effect of over 60% in size
Conditions: recombinant USP1/UAF1, Ub-Rhodamine cleavage fluorescence; activity change, negative = inhibition: at 57.1 µM (top of the series)
Method in brief: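 USP1/UAF1 complex (1 nM) preincubated 15 min at room temperature with compound, then Ub-Rho substrate (150 nM final) added. Kinetic fluorescence at 480/540 nm over 6 reads at 60 s intervals; 50 mM HEPES pH 7.8, 0.5 mM EDTA, 0.1 mg/ml BSA, 1 mM TCEP, 0.01% Tween-20.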
% is scaled to controls: 0 for no effect and ±100 for the full control effect; potency is read from the fitted curve at half-maximal effect.

Potency, inconclusive:
O=[N+]([O-])c1ccc(NCCc2ccccc2)c(Br)c1 44.7 µM [inhibitor, partial curve, poor fit], COc1cc2cc(Oc3ccc4ccc(=O)oc4c3)c(=O)oc2cc1O[C@@H]1O[C@H](CO)[C@@H](O)[C@H](O)[C@H]1O 44.7 µM [inhibitor, partial curve, poor fit], Cc1c(Cc2ccccc2)sc(/N=C/c2c(O)ccc3ccccc23)c1C(N)=O 31.6 µM [inhibitor, partial curve], COc1ccccc1N(CC(O)COc1c(C)cc(C)cc1C)S(=O)(=O)c1ccccc1 (stereo not drawn) 39.8 µM [inhibitor, partial curve], COC1=C/C(=C/c2c(N)n3c(nc2=O)sc2cc(S(C)(=O)=O)ccc23)C=CC1=O 31.6 µM [inhibitor, partial curve], Cc1oc2ccc(NS(=O)(=O)c3ccc(F)cc3)cc2c1C(=O)O 35.5 µM [inhibitor, single point], Cc1ccc(-c2n[nH]c3c2C(c2ccccc2Cl)N(c2ccc(C(=O)O)cc2)C3=O)cc1 (stereo not drawn) 44.7 µM [inhibitor, partial curve, poor fit], CCc1ccccc1NC(=O)Cn1c(=O)n(Cc2ccccc2)c(=O)c2c(C)c(C(=O)N(C)C)sc21 50.1 µM [inhibitor, partial curve, poor fit], Cc1ccc(C(=O)c2cn(CC(=O)NCc3ccccc3)c3nc(C)ccc3c2=O)cc1 28.2 µM [inhibitor, partial curve, poor fit], Cc1nc(S/C(=C/c2ccc(-c3ccc(C(=O)O)cc3)o2)C(=O)O)n[nH]1 31.6 µM [inhibitor, partial curve], Cc1ccc(N2C(=O)c3ccccc3NC2(C(=O)O)c2ccccc2)cc1Cl (stereo not drawn) 0.251 µM [inhibitor, full curve, poor fit]

Potency, inactive:
Cc1cc(C)n2nc(-c3ccsc3-n3c(C)ccc3C)cc2n1, COc1cccc(-n2nnc3c(=O)n(C/C=C/c4ccccc4)cnc32)c1, COc1ccc(CCNC(=O)C(=O)Nc2ccc(C)c(C)c2)cc1, COc1ccc(C(=O)Nc2nc(-c3nnn(-c4ccc(F)cc4F)c3C)ns2)cc1, C=CS(=O)(=O)N(Cc1ccccc1Br)[C@H](CO)Cc1ccccc1, Cc1ccc(C)c(NC(=S)Nc2cccnc2)c1

Activity change, negative = inhibition, inconclusive:
O=C1CN(C(=O)c2ccc(S(=O)(=O)N3CCCC3)cc2)C(c2ccccc2)c2cc(Cl)ccc2N1 (stereo not drawn) -27.1% [inhibitor]
